The supplement of paper PMC4604168 (melanoma cell lines)
Some of the results follow. Single values are uncertain, as repeats are few or missing.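 Imaging used 1,536-well plates; nuclei positive for cleaved PARP by antibody were divided by total DNA-stained nuclei to yield the apoptosis fraction. Doses for screening kept most cells viable, and cell lines differ markedly in resting and induced cleaved-PARP levels.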

What was measured:
Test in all cases: cleaved PARP positive nuclei fraction relative to DMSO control; melanoma cells; higher = more apoptosis
Details in all cases: library dose: low library concentration; 72 h
501Mel = tested on: 501Mel
A101D = tested on: A101D
A2058 = tested on: A2058
C32 = tested on: C32
CBRC008 = tested on: CBRC008 (line from a melanoma biopsy)
CBRC014 = tested on: CBRC014 (line from a melanoma biopsy)
CBRC016 = tested on: CBRC016 (line from a melanoma biopsy)
CBRC017 = tested on: CBRC017 (line from a melanoma biopsy)
COLO792 = tested on: COLO792
COLO800 = tested on: COLO800
COLO829 = tested on: COLO829
G361 = tested on: G361
IPC-298 = tested on: IPC-298
IST-MEL1 = tested on: IST-MEL1
LB2518-MEL = tested on: LB2518-MEL
LOXIMVI = tested on: LOXIMVI

Structure (SMILES) | cleaved PARP positive nuclei fraction (501Mel) [%] | cleaved PARP positive nuclei fraction (A101D) [%] | cleaved PARP positive nuclei fraction (A2058) [%] | cleaved PARP positive nuclei fraction (C32) [%] | cleaved PARP positive nuclei fraction (CBRC008) [%] | cleaved PARP positive nuclei fraction (CBRC014) [%] | cleaved PARP positive nuclei fraction (CBRC016) [%] | cleaved PARP positive nuclei fraction (CBRC017) [%] | cleaved PARP positive nuclei fraction (COLO792) [%] | cleaved PARP positive nuclei fraction (COLO800) [%] | cleaved PARP positive nuclei fraction (COLO829) [%] | cleaved PARP positive nuclei fraction (G361) [%] | cleaved PARP positive nuclei fraction (IPC-298) [%] | cleaved PARP positive nuclei fraction (IST-MEL1) [%] | cleaved PARP positive nuclei fraction (LB2518-MEL) [%] | cleaved PARP positive nuclei fraction (LOXIMVI) [%]
C[C@@H](N)c1ccc(C(=O)Nc2ccnc3[nH]ccc23)cc1 + CCc1ccc(CCOc2ccc(CC3SC(=O)NC3=O)cc2)nc1 [pioglitazone] (first compound 0.4 µM, partner dose 2 µM) | 74 | 25.5 | 156 | 56.1 | 241 | 115 | 104 | 83 | 197 | 69.3 | 80.3 | 175 | 45.8 | 45.7 | 141 | 179
COc1ccc(C2=N[C@@H](c3ccc(Cl)cc3)[C@@H](c3ccc(Cl)cc3)N2C(=O)N2CCNC(=O)C2)c(OC(C)C)c1 [Nutlin-3] + O=C(Nc1ccccc1)c1cc([N+](=O)[O-])ccc1Cl [GW9662] (first compound 0.1 µM, partner dose 2 µM) | 70.9 | 60.4 | 97.7 | 123 | 73 | 110 | 99.9 | 92 | 73.8 | 97.4 | 98.7 | 312 | 89.9 | 135 | 152 | 36.1
CS(=O)(=O)c1ccc(C(=O)Nc2ccc(Cl)c(-c3ccccn3)c2)c(Cl)c1 [vismodegib] + O=C(O)C(=O)Nc1sc2c(c1C(=O)O)CCNC2 [TCS401] (first compound 1 µM, partner dose 1.66667 µM) | 108 | 25.8 | 76.9 | 33.8 | 311 | 86.7 | 144 | 61.4 | 45.6 | 119 | 162 | 77.4 | 45.6 | 130 | 133 | 102
CS(=O)(=O)c1ccc(C(=O)Nc2ccc(Cl)c(-c3ccccn3)c2)c(Cl)c1 [vismodegib] + CCCCCCCCCCCC1=C(O)C(=O)C=C(O)C1=O [Embelin] (first compound 1 µM, partner dose 1.2 µM) | 84.5 | 17.2 | 55.7 | 98.3 | 168 | 679 | 43.5 | 93 | 34.1 | 126 | 96.6 | 95.1 | 124 | 74.2 | 188 | 93.8
CN(c1ncccc1CNc1nc(Nc2ccc3c(c2)CC(=O)N3)ncc1C(F)(F)F)S(C)(=O)=O + O=C(O)C(=O)Nc1sc2c(c1C(=O)O)CCNC2 [TCS401] (first compound 0.08 µM, partner dose 1.66667 µM) | 66.6 | 14.2 | 166 | 360 | 129 | 88.1 | 102 | 92.5 | 79.4 | 204 | 55.4 | 85.1 | 82.7 | 155 | 84.8 | 109
CCN(CC)CCNC(=O)c1c(C)[nH]c(/C=C2\C(=O)Nc3ccc(F)cc32)c1C [sunitinib] + COc1ccc2c(c1)CCC1C2CCC2(C)C(NCCCCCCN3C(=O)C=CC3=O)CCC12 [U73122] (first compound 0.4 µM, partner dose 0.4 µM) | 88.3 | 90.3 | 72.2 | 85.8 | 72.5 | 83.7 | 112 | 69.3 | 147 | 126 | 50.1 | 76.2 | 104 | 29 | 129 | 173
CCCCCCCCc1ccc(CCC(N)(CO)CO)cc1 [fingolimod] + c1cc(-c2cnn3cc(-c4ccc(OCCN5CCCCC5)cc4)cnc23)ccn1 [Dorsomorphin] (first compound 2 µM, partner dose 0.4 µM) | 45.8 | 20.2 | 92 | 155 | 25.1 | 108 | 18.3 | 114 | 82.2 | 226 | 112 | 87.7 | 44.6 | 89.8 | 79.9 | 67.4
C[C@@H](N)c1ccc(C(=O)Nc2ccnc3[nH]ccc23)cc1 + COc1ccc(-c2ccc3c(N4CCOCC4)nc(N4C[C@@H](C)O[C@@H](C)C4)nc3n2)cc1CO [KU0063794] (first compound 0.4 µM, partner dose 0.02 µM) | 64.2 | 29.7 | 163 | 249 | 45.3 | 95.3 | 69.7 | 204 | 118 | 30.2 | 15.7 | 61.7 | 63.5 | 170 | 72.8 | 508
C[C@@H](N)c1ccc(C(=O)Nc2ccnc3[nH]ccc23)cc1 + COc1cc(N2CCC(N3CCN(C)CC3)CC2)ccc1Nc1ncc(Cl)c(Nc2ccccc2S(=O)(=O)C(C)C)n1 [NVP-TAE684] (first compound 0.4 µM, partner dose 0.08 µM) | 117 | 24.9 | 73.4 | 83.9 | 51.4 | 104 | 165 | 109 | 90.8 | 165 | 198 | 103 | 174 | 86.9 | 91.2 | 90.2
CCN(CC)CCNC(=O)c1c(C)[nH]c(/C=C2\C(=O)Nc3ccc(F)cc32)c1C [sunitinib] + COc1ccc(COc2ccc(Cc3cnc(N)nc3N)cc2OC)cc1 [GW2580] (first compound 0.4 µM, partner dose 1 µM) | 103 | 44.4 | 78.3 | 42 | 126 | 95.7 | 84.7 | 111 | 129 | 68 | 82.7 | 67.6 | 133 | 115 | 68.3 | 135
